Experimental data: paper doi:10.1101/2024.11.06.622233
No constants are given. Whether binding was seen depends on the method and setting. Binding seen in cells or lysates may run through a third protein. A yes stands for co-enrichment or nearness to the bait. Other partners may have been found.

Sequences of proteins named here, by UniProt entry; tags and fusion partners are left off.
UniProt Q9D0R8: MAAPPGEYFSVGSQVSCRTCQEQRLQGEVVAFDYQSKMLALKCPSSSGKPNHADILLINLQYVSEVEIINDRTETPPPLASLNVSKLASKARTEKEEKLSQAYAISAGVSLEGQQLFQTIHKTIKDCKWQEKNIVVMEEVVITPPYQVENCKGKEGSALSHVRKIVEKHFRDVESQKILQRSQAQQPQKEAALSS
UniProt P17742: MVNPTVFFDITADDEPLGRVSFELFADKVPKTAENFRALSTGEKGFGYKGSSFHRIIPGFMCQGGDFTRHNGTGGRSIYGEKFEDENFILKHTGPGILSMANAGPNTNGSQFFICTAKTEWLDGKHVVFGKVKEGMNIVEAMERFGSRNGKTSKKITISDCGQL
UniProt Q64331: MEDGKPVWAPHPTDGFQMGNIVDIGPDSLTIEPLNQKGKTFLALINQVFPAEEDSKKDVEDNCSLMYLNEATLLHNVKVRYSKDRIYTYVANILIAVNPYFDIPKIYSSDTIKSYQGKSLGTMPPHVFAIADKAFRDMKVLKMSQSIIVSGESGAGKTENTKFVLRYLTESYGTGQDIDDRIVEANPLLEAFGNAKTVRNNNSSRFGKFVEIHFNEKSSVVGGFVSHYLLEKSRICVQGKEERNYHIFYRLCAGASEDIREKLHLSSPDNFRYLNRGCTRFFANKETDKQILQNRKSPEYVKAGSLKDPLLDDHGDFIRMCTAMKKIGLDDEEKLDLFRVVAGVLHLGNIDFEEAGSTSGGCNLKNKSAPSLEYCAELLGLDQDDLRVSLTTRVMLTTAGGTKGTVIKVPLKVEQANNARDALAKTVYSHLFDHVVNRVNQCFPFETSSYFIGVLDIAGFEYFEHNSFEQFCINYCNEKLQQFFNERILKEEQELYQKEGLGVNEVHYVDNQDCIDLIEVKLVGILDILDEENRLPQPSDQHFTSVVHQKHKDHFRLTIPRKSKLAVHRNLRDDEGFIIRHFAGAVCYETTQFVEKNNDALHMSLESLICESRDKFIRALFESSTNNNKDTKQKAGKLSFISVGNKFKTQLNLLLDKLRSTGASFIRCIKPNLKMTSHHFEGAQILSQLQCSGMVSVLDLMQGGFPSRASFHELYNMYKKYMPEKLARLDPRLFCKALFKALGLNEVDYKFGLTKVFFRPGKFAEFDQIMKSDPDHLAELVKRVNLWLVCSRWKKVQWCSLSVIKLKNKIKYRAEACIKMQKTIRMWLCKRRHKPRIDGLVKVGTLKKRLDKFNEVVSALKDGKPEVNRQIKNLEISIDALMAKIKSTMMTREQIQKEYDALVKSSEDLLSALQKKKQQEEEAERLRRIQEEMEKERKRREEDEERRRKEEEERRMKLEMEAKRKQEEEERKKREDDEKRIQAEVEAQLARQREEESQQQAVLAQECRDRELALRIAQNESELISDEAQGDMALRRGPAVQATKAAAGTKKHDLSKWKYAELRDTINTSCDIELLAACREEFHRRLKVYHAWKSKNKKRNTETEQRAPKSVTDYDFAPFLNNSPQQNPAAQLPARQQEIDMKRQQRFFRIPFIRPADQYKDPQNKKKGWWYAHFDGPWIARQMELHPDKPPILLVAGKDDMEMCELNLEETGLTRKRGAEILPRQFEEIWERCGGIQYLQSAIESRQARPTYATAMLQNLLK
UniProt Q61879: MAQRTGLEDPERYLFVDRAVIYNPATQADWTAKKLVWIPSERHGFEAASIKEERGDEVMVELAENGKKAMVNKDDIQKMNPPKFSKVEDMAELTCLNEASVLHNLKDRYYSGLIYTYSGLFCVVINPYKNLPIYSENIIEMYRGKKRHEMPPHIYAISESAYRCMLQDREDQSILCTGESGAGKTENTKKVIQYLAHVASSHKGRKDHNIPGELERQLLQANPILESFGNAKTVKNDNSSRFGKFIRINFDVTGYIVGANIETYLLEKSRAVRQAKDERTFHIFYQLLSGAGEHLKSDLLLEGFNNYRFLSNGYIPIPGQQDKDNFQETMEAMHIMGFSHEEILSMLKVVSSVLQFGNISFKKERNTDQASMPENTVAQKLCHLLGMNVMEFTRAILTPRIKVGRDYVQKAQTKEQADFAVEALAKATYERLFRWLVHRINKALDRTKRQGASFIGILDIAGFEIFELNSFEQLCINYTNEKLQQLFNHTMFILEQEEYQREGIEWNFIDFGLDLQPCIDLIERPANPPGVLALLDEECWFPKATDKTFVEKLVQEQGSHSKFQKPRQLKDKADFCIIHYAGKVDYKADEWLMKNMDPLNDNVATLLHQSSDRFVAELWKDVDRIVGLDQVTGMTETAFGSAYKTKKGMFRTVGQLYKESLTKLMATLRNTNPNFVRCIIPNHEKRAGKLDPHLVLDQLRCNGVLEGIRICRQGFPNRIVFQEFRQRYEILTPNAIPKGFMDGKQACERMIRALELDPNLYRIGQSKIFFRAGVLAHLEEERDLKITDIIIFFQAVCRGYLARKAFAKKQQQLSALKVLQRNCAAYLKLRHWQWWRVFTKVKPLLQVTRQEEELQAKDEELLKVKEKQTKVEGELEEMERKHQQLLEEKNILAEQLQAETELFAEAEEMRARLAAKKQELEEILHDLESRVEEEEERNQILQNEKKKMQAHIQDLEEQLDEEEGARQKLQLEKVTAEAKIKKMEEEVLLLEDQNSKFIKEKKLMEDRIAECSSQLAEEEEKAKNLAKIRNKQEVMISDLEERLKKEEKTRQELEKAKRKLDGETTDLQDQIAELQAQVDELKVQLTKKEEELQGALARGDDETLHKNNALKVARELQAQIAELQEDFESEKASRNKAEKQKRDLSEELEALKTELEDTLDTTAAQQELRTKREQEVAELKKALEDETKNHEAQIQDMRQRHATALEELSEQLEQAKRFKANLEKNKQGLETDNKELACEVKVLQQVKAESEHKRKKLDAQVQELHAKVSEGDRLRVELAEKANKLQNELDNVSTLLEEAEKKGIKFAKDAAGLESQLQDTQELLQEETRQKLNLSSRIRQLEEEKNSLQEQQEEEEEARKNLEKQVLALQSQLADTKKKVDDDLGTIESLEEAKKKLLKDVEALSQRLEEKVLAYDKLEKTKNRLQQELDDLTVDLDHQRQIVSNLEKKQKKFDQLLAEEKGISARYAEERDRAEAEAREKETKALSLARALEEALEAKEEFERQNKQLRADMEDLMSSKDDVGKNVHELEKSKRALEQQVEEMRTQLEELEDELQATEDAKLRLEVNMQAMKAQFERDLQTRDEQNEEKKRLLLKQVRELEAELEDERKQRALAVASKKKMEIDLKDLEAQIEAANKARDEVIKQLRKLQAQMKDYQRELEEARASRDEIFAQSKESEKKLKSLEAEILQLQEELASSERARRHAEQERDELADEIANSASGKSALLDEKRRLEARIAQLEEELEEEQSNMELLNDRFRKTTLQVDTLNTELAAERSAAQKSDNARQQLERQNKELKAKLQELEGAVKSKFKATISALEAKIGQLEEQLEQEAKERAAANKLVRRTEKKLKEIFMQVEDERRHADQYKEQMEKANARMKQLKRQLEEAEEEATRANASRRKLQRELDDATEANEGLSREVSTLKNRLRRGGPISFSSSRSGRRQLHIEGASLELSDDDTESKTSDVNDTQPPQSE
UniProt Q6URW6: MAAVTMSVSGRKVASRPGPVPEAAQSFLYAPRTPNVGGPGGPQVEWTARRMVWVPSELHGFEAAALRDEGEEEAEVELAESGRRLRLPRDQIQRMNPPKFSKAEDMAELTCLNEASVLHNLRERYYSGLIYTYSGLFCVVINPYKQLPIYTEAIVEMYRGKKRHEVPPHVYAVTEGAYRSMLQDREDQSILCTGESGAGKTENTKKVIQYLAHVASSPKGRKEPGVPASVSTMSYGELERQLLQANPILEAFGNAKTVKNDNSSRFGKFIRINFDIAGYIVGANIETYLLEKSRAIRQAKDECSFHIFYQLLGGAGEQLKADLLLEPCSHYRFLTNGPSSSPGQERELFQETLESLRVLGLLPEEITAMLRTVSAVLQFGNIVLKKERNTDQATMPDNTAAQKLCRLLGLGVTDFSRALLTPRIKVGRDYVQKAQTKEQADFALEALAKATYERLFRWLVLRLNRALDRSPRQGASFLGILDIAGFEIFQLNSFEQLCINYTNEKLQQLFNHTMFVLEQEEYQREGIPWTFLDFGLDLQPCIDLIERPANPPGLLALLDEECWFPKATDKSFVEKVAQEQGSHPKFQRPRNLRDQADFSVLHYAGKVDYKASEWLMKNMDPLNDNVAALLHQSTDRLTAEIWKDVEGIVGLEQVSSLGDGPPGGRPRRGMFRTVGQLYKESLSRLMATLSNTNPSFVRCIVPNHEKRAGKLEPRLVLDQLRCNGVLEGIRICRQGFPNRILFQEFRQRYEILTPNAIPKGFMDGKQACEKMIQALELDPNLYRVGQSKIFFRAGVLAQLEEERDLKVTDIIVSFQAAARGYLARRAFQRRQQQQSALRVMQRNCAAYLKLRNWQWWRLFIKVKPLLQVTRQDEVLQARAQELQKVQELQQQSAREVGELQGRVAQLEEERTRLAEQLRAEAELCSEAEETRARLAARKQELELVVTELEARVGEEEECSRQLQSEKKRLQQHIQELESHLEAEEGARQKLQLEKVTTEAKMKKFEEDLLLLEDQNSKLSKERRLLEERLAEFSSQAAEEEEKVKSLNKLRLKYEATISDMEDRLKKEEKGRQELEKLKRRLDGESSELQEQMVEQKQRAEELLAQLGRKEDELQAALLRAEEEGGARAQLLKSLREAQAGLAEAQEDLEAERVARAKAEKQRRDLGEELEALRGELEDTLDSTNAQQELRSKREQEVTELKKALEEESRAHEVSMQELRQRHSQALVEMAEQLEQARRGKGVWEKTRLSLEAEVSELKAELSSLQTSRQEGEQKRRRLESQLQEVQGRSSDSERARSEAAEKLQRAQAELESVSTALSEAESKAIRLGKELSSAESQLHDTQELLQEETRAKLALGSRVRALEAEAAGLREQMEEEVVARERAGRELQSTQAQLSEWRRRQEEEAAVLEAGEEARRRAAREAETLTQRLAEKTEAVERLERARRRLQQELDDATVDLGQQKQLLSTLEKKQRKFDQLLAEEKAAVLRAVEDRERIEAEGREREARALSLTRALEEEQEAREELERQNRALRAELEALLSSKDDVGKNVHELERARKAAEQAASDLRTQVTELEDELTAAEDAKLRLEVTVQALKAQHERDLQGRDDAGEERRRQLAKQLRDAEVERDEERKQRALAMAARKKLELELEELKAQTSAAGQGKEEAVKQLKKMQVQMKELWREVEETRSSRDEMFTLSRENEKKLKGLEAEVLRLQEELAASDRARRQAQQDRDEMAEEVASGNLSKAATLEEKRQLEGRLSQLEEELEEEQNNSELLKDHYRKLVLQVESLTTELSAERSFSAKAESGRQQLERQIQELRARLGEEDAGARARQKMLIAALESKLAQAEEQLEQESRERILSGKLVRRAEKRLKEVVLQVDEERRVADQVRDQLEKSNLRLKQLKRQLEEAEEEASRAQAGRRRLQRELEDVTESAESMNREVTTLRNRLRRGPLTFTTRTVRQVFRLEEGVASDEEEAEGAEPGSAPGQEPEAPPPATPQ

T1: Ataxin-2 (wildtype, mouse) (mouse (endogenous in cerebellum)) (UniProt O70305)
T1 sequence: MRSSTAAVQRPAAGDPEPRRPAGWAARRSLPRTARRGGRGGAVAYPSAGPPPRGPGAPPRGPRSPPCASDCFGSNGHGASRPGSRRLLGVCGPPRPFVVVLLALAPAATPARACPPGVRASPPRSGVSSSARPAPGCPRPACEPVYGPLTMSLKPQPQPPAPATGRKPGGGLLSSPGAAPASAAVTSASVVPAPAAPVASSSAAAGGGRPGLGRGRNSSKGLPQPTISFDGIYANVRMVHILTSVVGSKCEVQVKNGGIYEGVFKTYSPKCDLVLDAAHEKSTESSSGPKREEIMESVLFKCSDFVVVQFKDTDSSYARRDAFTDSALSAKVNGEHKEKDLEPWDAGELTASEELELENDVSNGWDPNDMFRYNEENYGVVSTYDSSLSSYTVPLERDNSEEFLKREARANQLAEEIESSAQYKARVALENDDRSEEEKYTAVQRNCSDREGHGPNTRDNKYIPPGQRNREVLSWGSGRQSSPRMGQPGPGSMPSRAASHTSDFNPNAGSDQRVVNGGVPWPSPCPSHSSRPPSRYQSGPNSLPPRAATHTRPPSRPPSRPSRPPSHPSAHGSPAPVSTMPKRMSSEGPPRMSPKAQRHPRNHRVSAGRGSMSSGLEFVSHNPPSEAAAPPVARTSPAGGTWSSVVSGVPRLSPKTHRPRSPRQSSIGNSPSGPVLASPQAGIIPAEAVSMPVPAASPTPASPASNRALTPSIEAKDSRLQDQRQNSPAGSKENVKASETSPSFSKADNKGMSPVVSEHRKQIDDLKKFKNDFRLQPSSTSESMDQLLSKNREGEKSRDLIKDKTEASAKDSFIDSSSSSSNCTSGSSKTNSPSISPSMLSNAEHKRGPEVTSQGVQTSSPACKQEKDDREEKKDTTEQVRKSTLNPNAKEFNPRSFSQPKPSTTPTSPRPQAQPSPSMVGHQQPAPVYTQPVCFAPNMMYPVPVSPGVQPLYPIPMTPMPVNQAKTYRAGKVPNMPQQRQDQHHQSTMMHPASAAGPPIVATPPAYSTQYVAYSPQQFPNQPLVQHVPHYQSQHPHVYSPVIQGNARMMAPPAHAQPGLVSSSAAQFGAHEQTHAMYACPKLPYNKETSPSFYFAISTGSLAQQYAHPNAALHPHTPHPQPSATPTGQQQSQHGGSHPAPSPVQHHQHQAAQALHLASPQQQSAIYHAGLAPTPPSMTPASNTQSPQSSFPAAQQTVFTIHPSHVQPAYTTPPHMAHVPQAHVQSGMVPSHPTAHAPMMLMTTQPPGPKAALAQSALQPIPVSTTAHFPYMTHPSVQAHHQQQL

B1: STAU1 (protein, UniProt Q9Z108 1-487)
chain: MYKPVDPHSRMQSTYSYGMRGGAYPPRYFYPFPVPPLLYQVELSVGGQQFNGKGKMRPPVKHDAPARALRTLQSEPLPERLEVNGREAEEENLNKSEISQVFEIALKRNLPVNFEVARESGPPHMKNFVTRVSVGEFVGEGEGKSKKISKKNAARAVLEQLRRLPPLPAVERVKPRIKKKSQPTCKTAPDYGQGMNPISRLAQIQQAKKEKEPEYMLLTERGLPRRREFVMQVKVGHHTAEGVGTNKKVAKRNAAENMLEILGFKVPQAQPAKPALKSEEKTPVKKPGDGRKVTFFEPSPGDENGTSNKDEEFRMPYLSHQQLPAGILPMVPEVAQAVGVSQGHHTKDFTRAAPNPAKATVTAMIARELLYGGTSPTAETILKSNISSGHVPHGPRTRPSEQLYYLSRAQGFQVEYKDFPKNNKNECVSLINCSSQPPLVSHGIGKDVESCHDMAALNILKLLSELDQQSTEMPRTGNGPVSACGRC
B2: SHANK2 (protein, UniProt Q80Z38 1-1476)
chain: MKSLLNAFTKKEVPFREAPAYSNRRRRPPNTLAAPRVLLRSNSDNNLNAGAPEWAVCSAATSHRSLSPQLLQQTPSKPDGATKSLGSYTPGPRSRSPSLNRLGGTAEDGKRTQPHWHVGSPFTPGANKDSLSTFEYPGPRRKLYSAVPGRLFVAVKPYQPQVDGEIPLHRGDRVKVLSIGEGGFWEGSARGHIGWFPAECVEEVQCKPRDSQAETRADRSKKLFRHYTVGSYDSFDAASDCIIEDKTVVLQKKDNEGFGFVLRGAKADTPIEEFTPTPAFPALQYLESVDEGGVAWQAGLRTGDFLIEVNNENVVKVGHRQVVNMIRQGGNHLILKVVTVTRNLDPDDTARKKAPPPPKRAPTTALTLRSKSMTAELEELGLSLVDKASVRKKKDKPEEIVPASKPSRTAENVAIESRVATIKQRPTSRCFPAASDVNSVYERQGIAVMTPTVPGSPKGPFLGLPRGTMRRQKSIDSRIFLSGITEEERQFLAPPMLKFTRSLSMPDTSEDIPPPPQSVPPSPPPPSPTTYNCPRSPTPRVYGTIKPAFNQNPVVAKVPPATRSDTVATMMREKGMFYRRELDRFSLDSEDVYSRSPAPQAAFRTKRGQMPENPYSEVGKIASKAVYVPAKPARRKGVLVKQSNVEDSPEKTCSIPIPTIIVKEPSTSSSGKSSQGSSMEIDPQATEPGQLRPDDSLTVSSPFAAAIAGAVRDREKRLEARRNSPAFLSTDLGDEDVGLGPPAPRMQASKFPEEGGFGDEDETEQPLLPTPGAAPRELENHFLGGGEAGAQGEAGGPLSSTSKAKGPESGPAAPLKSSSPAGPENYVHPLTGRLLDPSSPLALALSARDRAMQESQQGHKGEAPKADLNKPLYIDTKMRPSVESGFPPVTRQNTRGPLRRQETENKYETDLGKDRRADDKKNMLINIVDTAQQKSAGLLMVHTVDVPMAGPPLEEEEDREDGDTKPDHSPSTVPEGVPKTEGALQISAAPEPAVAPGRTIVAAGSVEEAVILPFRIPPPPLASVDLDEDFLFTEPLPPPLEFANSFDIPDDRAASVPALADLVKQKKNDTSQPPTLNSSQPANSTDSKKPAGISNCLPSSFLPPPESFDAVTDSGIEEVDSRSSSDHHLETTSTISTVSSISTLSSEGGESMDTCTVYADGQAFVVDKPPVPPKPKMKPIVHKSNALYQDTLPEEDTDGFVIPPPAPPPPPGSAQAGVAKVIQPRTSKLWGDVPEVKSPILSGPKANVISELNSILQQMNRGKSVKPGEGLELPVGAKSANLAPRSPEVMSTVSGTRSTTVTFTVRPGTSQPITLQSRPPDYESRTSGPRRAPSPVVSPTELSKEILPTPPPPSATAASPSPTLSDVFSLPSQSPAGDLFGLNPAGRSRSPSPSILQQPISNKPFTTKPVHLWTKPDVADWLESLNLGEHKETFMDNEIDGSHLPNLQKEDLIDLGVTRVGHRMNIERALKQLLDR

Molecular target: T1, Ataxin-2 (wildtype, mouse) (mouse (endogenous in cerebellum))
Assay: affinity purification with mass spectrometry

Row | Molecule | binding
1 | LSM12 (from UniProt Q9D0R8 1-195) | binds
2 | peptidyl prolyl isomerase A (from UniProt P17742 1-164) | binds
3 | unconventional myosin VI (from UniProt Q64331 1-1262) | binds
4 | MYH10 (from UniProt Q61879 1-1976) | binds
5 | MYH14 (from UniProt Q6URW6 1-2000) | binds
6 | B1 | binds
7 | B2 | binds
